From the supplement of paper PMC10849652
The list shows a part of the results.

Sequences of proteins named here, by UniProt entry; tags and fusion partners are left off. A change or cut given only in a name is not applied to a line headed by its entry.
UniProt Q9BRT6: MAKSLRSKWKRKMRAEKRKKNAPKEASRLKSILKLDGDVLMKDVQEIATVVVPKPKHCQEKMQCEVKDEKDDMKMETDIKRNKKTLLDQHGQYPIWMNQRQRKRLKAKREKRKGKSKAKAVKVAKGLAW
UniProt P18858, whole entry, looked up: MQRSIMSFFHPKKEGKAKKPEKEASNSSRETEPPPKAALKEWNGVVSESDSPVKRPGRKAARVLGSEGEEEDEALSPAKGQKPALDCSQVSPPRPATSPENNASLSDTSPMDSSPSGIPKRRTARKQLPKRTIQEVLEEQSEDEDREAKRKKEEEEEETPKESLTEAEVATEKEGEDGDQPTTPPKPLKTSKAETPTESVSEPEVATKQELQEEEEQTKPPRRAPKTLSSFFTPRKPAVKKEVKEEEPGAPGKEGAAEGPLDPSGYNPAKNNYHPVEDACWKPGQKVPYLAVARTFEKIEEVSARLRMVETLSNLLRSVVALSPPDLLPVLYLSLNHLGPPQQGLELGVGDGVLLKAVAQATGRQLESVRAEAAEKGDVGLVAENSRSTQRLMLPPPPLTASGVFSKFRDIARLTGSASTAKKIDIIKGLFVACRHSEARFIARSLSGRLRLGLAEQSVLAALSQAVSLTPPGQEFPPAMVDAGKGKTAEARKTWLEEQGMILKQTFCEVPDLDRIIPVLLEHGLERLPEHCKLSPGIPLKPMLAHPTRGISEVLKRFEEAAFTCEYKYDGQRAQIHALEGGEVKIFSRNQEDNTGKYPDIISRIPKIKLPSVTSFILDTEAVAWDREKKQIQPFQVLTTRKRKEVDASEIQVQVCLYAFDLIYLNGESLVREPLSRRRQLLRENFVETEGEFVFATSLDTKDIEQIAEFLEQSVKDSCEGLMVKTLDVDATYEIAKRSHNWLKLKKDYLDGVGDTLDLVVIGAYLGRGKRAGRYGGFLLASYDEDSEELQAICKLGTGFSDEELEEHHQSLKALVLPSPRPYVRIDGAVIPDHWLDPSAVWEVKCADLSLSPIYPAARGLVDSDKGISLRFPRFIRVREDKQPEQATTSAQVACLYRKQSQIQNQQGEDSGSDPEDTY
UniProt Q6ZN17: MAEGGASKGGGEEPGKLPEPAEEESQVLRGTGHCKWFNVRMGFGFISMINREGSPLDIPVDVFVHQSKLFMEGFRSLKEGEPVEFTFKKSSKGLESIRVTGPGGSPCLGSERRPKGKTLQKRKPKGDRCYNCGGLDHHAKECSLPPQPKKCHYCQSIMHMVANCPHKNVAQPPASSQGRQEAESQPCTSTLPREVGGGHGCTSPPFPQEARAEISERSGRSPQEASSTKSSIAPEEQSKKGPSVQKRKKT
UniProt P28838: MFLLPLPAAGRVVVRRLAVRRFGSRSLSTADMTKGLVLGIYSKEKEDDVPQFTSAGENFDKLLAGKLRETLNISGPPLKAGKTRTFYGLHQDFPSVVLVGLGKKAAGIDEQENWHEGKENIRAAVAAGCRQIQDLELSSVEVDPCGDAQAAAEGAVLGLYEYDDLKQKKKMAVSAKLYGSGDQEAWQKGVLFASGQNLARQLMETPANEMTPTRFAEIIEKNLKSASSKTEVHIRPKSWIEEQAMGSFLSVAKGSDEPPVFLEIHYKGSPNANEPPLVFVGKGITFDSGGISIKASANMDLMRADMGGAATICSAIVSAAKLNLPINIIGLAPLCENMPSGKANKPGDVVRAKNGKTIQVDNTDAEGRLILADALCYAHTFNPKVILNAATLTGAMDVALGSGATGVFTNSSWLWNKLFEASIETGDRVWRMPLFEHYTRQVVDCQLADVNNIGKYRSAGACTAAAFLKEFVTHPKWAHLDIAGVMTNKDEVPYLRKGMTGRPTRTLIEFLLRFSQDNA
UniProt Q9NUP9: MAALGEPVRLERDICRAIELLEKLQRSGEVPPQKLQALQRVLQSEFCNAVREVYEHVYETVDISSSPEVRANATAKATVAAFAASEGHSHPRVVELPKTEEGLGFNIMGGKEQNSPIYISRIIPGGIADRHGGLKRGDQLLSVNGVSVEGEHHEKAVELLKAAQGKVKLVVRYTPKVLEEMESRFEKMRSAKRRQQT
UniProt Q96BZ8: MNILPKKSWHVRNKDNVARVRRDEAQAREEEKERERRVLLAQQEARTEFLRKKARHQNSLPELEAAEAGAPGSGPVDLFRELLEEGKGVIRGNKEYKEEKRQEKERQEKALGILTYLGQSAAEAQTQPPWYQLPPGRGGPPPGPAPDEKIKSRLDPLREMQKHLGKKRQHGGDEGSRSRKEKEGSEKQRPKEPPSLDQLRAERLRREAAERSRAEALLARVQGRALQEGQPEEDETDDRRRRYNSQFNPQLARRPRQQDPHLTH
UniProt O43813, whole entry, looked up: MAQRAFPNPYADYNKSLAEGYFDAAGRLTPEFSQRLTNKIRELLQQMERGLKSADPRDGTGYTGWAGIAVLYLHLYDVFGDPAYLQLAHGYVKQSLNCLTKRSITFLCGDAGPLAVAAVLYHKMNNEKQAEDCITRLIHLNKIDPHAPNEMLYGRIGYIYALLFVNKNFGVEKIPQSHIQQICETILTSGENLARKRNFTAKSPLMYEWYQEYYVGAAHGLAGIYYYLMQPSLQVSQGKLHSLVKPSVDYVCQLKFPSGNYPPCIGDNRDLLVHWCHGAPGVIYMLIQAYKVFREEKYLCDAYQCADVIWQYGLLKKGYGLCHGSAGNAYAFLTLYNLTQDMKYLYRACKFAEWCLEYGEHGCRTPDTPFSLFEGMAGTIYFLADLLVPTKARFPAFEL
UniProt Q8TCA0: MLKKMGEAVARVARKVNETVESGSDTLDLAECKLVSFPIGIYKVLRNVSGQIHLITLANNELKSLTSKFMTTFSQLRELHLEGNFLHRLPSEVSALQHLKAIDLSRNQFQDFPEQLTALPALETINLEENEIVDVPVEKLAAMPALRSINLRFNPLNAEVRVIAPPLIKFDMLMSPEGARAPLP
UniProt Q16719: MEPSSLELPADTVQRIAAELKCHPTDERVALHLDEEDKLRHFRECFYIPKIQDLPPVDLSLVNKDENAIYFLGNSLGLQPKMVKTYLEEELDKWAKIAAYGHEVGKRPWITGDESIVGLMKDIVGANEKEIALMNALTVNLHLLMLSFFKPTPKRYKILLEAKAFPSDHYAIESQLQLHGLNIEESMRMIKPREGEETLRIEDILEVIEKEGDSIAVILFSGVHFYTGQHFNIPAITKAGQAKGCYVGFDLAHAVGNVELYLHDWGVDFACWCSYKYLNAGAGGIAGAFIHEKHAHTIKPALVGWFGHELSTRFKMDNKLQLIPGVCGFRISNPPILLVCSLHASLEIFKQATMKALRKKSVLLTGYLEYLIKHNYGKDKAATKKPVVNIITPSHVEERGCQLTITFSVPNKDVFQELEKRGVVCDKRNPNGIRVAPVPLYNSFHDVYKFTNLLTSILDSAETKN
UniProt Q96EM0: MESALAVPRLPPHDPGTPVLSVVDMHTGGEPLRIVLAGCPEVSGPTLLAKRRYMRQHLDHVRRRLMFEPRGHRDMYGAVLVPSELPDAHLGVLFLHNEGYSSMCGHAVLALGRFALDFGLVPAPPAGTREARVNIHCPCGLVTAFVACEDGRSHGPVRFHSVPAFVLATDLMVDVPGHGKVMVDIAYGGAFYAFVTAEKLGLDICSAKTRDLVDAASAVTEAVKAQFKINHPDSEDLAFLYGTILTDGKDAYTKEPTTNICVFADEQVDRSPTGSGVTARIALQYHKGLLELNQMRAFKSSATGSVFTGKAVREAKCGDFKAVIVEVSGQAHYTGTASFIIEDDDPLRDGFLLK
UniProt Q9Y4W2: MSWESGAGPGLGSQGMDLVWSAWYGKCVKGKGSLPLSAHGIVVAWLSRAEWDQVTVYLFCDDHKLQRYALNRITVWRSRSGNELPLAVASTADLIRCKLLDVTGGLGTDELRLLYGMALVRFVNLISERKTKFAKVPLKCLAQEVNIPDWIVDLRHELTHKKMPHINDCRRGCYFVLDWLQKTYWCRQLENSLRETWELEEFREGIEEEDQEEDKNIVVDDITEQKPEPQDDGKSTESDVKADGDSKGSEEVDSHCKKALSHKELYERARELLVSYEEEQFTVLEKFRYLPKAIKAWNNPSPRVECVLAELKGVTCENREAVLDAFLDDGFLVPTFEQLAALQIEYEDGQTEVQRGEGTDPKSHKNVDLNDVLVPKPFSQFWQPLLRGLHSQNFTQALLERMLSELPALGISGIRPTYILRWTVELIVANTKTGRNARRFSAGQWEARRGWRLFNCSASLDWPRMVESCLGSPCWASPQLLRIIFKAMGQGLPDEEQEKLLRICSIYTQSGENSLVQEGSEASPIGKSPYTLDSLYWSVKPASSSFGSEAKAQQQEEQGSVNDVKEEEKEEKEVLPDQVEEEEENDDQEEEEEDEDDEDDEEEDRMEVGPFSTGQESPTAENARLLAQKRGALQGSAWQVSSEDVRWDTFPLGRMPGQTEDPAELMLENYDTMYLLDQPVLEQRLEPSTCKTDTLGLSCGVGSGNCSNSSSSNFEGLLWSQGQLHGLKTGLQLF
UniProt Q9UHA4, whole entry, looked up: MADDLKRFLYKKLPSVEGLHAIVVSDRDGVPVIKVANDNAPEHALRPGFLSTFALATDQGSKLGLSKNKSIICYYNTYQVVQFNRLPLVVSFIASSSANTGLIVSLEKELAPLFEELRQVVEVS
UniProt O14910: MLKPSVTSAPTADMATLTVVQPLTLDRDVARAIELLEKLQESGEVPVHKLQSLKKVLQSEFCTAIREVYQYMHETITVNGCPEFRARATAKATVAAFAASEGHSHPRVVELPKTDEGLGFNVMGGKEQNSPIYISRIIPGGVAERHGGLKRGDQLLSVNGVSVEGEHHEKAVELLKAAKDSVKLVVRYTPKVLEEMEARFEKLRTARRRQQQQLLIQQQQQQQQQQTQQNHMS
UniProt Q6ZV70: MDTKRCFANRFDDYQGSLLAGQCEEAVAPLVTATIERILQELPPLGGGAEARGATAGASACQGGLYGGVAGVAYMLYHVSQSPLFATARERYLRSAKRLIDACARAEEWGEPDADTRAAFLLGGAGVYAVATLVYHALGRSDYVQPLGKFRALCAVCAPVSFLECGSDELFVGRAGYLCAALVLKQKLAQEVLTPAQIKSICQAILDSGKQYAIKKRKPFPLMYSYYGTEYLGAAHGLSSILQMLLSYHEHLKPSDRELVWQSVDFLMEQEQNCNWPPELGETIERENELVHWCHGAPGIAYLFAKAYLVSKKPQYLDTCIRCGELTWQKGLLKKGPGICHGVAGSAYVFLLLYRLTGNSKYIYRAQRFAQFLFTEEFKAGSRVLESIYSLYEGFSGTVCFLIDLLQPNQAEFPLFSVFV
UniProt Q9H9A6: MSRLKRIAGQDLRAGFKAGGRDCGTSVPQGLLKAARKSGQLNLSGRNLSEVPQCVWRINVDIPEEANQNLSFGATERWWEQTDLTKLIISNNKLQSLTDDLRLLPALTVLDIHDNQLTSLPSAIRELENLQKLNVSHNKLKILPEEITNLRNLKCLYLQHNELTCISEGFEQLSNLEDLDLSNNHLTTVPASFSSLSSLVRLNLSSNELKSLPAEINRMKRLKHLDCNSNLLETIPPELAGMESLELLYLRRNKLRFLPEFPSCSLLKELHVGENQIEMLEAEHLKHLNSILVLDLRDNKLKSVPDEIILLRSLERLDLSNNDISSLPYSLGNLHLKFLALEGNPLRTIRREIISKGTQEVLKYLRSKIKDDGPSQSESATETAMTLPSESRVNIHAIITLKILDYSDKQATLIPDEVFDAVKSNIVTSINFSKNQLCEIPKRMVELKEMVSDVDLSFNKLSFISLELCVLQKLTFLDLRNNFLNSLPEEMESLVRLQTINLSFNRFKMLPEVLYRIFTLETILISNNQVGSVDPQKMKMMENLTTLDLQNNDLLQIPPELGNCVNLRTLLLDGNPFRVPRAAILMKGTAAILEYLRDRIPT
UniProt Q9UHB6: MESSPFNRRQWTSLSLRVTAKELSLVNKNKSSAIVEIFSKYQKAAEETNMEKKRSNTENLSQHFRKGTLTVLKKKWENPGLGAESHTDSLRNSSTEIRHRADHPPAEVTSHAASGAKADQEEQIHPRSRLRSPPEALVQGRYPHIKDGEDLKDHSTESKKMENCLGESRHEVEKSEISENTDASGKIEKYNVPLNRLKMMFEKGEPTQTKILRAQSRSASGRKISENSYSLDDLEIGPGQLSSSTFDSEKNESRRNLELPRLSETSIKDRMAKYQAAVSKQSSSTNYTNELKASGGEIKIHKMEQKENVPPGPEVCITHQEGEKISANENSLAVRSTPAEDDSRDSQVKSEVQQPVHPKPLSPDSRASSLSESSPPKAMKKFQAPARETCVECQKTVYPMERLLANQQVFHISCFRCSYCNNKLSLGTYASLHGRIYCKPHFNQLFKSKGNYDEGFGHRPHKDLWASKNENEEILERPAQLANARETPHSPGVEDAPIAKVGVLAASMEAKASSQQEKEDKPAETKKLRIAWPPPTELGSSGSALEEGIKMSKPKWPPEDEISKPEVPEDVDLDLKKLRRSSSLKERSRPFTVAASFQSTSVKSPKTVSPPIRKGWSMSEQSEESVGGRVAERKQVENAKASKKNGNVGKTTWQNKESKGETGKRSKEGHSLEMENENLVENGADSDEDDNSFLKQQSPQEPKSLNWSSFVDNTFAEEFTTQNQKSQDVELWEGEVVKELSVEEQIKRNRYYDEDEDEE

Columns and labels:
Experiment in all cases: log2 fold change, soluble protein after heating vs DMSO (PISA); higher = thermal stabilisation; K562 cells, 10 uM, 30 min; active = over 0.2 and 3.5 SD of the protein, either way, in both replicates (recomputed)
[1] = compound: CS(=O)(=O)c1ccc(-c2cnc(N)c(C(=O)Nc3ccccc3)n2)cc1
How it was run: (§1)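 K562 cells at 2×10^6 cells/mL were treated with 10 μM compound for 30 min. Aliquots were heated for 3 min across 48°C-58°C, pooled, and extracted in PBS with 0.5% NP-40 at 4°C; soluble protein was the supernatant after 21,000xg for 90 min. Soluble protein was quantified by TMTpro 16plex LC-MS/MS with channel sums equalised, and reported as log2 fold change in thermal stability against DMSO controls, with values from duplicates.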

crizotinib = compound: C[C@@H](Oc1cc(-c2cnn(C3CCNCC3)c2)cnc1N)c1c(Cl)ccc(F)c1Cl [crizotinib]
How it was run: as §1

[2] = compound: C[C@@H]1COCCN1C2=NC(=NC(=C2)C3(CC3)S(=O)(=O)C)C4=C5C=CNC5=CC=C4
How it was run: as §1

[3] = compound: C[C@H](C1=CC=C(C=C1)C(=O)NC2=C3C=CNC3=NC=C2)N
How it was run: as §1

duvelisib = compound: C[C@H](Nc1ncnc2nc[nH]c12)c1cc2cccc(Cl)c2c(=O)n1-c1ccccc1 [duvelisib]
How it was run: as §1

gandotinib = compound: Cc1cc(Nc2cc(CN3CCOCC3)c3nc(C)c(Cc4ccc(Cl)cc4F)n3n2)n[nH]1 [gandotinib]
How it was run: as §1

tozasertib = compound: Cc1cc(Nc2cc(N3CCN(C)CC3)nc(Sc3ccc(NC(=O)C4CC4)cc3)n2)n[nH]1 [tozasertib]
How it was run: as §1

[4] = compound: Cc1cc(SCc2sc(-c3ccc(C(F)(F)F)cc3)nc2C)ccc1OCC(=O)O
How it was run: as §1

doramapimod = compound: Cc1ccc(-n2nc(C(C)(C)C)cc2NC(=O)Nc2ccc(OCCN3CCOCC3)c3ccccc23)cc1 [doramapimod]
How it was run: as §1

ispinesib = compound: Cc1ccc(C(=O)N(CCCN)[C@@H](c2nc3cc(Cl)ccc3c(=O)n2Cc2ccccc2)C(C)C)cc1 [ispinesib]
How it was run: as §1

| Target | log2 fold change [1] | log2 fold change (crizotinib) | log2 fold change [2] | log2 fold change [3] | log2 fold change (duvelisib) | log2 fold change (gandotinib) | log2 fold change (tozasertib) | log2 fold change [4] | log2 fold change (doramapimod) | log2 fold change (ispinesib) |
| --- | --- | --- | --- | --- | --- | --- | --- | --- | --- | --- |
| LLPH (UniProt Q9BRT6) | inactive: -0.095 | inactive: -0.034 | inactive: -0.562 | inactive: 0.51 | inactive: -0.405 | inactive: 0.393 | inactive: 0.015 | inactive: -0.071 | inactive: 0.219 | inactive: -0.201 |
| LIG1 (UniProt P18858) | inactive: 0.082 | inactive: -0.05 | inactive: 0.221 | inactive: -0.039 | inactive: 0.1 | inactive: -0.147 | inactive: 0.06 | inactive: 0.142 | inactive: -0.076 | inactive: 0.004 |
| LIN28B (UniProt Q6ZN17) | inactive: -0.138 | inactive: 0.003 | inactive: -0.289 | inactive: 0.151 | inactive: -0.088 | inactive: 0.01 | inactive: 0.016 | inactive: -0.046 | inactive: 0.105 | inactive: -0.059 |
| LAP3 (UniProt P28838) | inactive: 0.007 | inactive: 0.036 | inactive: 0.051 | inactive: -0.079 | inactive: 0.02 | inactive: -0.044 | inactive: -0.016 | inactive: -0.028 | inactive: -0.036 | inactive: 0.025 |
| LIN7C (UniProt Q9NUP9) | inactive: -0.029 | inactive: -0.014 | inactive: -0.017 | inactive: -0.144 | inactive: 0.058 | inactive: -0.013 | inactive: -0.001 | inactive: 0.014 | inactive: 0.042 | inactive: -0.02 |
| LENG1 (UniProt Q96BZ8) | inactive: -0.037 | inactive: 0.055 | inactive: 0.028 | inactive: 0.007 | inactive: 0.054 | inactive: 0.049 | inactive: -0.06 | inactive: -0.034 | inactive: 0.011 | inactive: -0.011 |
| LANCL1 (UniProt O43813) | inactive: -0.003 | inactive: 0.011 | inactive: -0.001 | inactive: -0.095 | inactive: 0.034 | inactive: 0.008 | inactive: -0.027 | inactive: 0.007 | inactive: -0.043 | inactive: 0.021 |
| LRIF1 (UniProt Q5T3J3) | inactive: 0.013 | inactive: 0.011 | inactive: -0.081 | inactive: -0.18 | inactive: 0.096 | inactive: 0.045 | inactive: 0.025 | inactive: 0.02 | inactive: 0.001 | inactive: -0.036 |
| LRRC20 (UniProt Q8TCA0) | inactive: 0.042 | inactive: 0.116 | inactive: 0.217 | inactive: -0.067 | inactive: 0.04 | inactive: -0.023 | inactive: -0.047 | inactive: -0.003 | inactive: 0.079 | inactive: 0.195 |
| LMNB1 (UniProt P20700) | inactive: -0.01 | inactive: 0.038 | inactive: 0.108 | inactive: -0.172 | – | inactive: -0.03 | – | inactive: -0.022 | inactive: -0.003 | inactive: 0.041 |
| LETM1 (UniProt O95202) | inactive: -0.001 | inactive: -0.056 | inactive: 0.072 | inactive: -0.102 | inactive: 0.012 | inactive: -0.046 | inactive: 0.008 | inactive: 0.014 | inactive: -0.009 | inactive: 0.073 |
| LDHA isoform 3 (UniProt P00338) | inactive: 0.005 | inactive: 0.029 | inactive: 0.062 | inactive: -0.079 | inactive: 0.013 | inactive: 0.005 | inactive: -0.014 | inactive: -0.012 | inactive: -0.015 | inactive: 0.05 |
| KYNU (UniProt Q16719) | inactive: -0.005 | inactive: 0.09 | inactive: 0.003 | inactive: 0.029 | inactive: 0.046 | inactive: 0.022 | inactive: -0.096 | inactive: -0.106 | inactive: 0.013 | inactive: -0.011 |
| L3HYPDH (UniProt Q96EM0) | inactive: 0.048 | inactive: -0.089 | inactive: 0.092 | inactive: -0.004 | inactive: 0.018 | inactive: -0.041 | inactive: -0.037 | inactive: 0.004 | inactive: 0.051 | inactive: 0.044 |
| LCLAT1 (UniProt Q6UWP7) | inactive: -0.042 | inactive: 0.172 | inactive: 0.022 | inactive: -0.02 | inactive: 0.022 | inactive: -0.047 | inactive: -0.031 | inactive: -0.064 | inactive: 0 | inactive: 0.155 |
| LAS1L (UniProt Q9Y4W2) | inactive: 0.155 | inactive: -0.057 | inactive: -0.161 | inactive: 0.317 | inactive: -0.306 | inactive: 0.161 | inactive: 0.104 | inactive: 0.132 | inactive: 0.28 | inactive: -0.016 |

| Target | log2 fold change [1] | log2 fold change (crizotinib) | log2 fold change [2] | log2 fold change [3] | log2 fold change (duvelisib) | log2 fold change (gandotinib) | log2 fold change (tozasertib) | log2 fold change [4] | log2 fold change (doramapimod) | log2 fold change (ispinesib) |
| --- | --- | --- | --- | --- | --- | --- | --- | --- | --- | --- |
| LAMTOR4 (UniProt Q0VGL1) | inactive: -0.158 | inactive: -0.063 | inactive: -0.182 | inactive: 0.071 | inactive: -0.007 | inactive: 0.061 | inactive: 0.048 | inactive: 0.002 | inactive: -0.063 | inactive: -0.124 |
| LMAN2L isoform 2 (UniProt Q9H0V9) | inactive: 0.075 | inactive: 0.029 | inactive: 0 | inactive: 0.003 | inactive: -0.021 | inactive: -0.017 | inactive: 0 | inactive: 0.01 | inactive: -0.009 | inactive: -0.036 |
| LCMT1 (UniProt Q9UIC8) | inactive: 0.052 | inactive: -0.021 | inactive: 0.034 | inactive: -0.064 | inactive: 0.018 | inactive: -0.101 | inactive: 0.015 | inactive: -0.006 | inactive: 0.008 | inactive: 0.047 |
| LAMTOR3 (UniProt Q9UHA4) | inactive: -0.118 | inactive: -0.091 | inactive: -0.079 | inactive: 0.02 | inactive: -0.04 | inactive: 0.057 | inactive: -0.002 | inactive: 0.003 | inactive: 0.02 | inactive: -0.173 |
| LIN7A (UniProt O14910) | inactive: 0.023 | inactive: -0.018 | inactive: -0.06 | inactive: -0.021 | inactive: 0.096 | – | inactive: 0.007 | inactive: 0.061 | inactive: -0.035 | inactive: -0.023 |
| LIMK2 isoform 3 (UniProt P53671) | inactive: 0.045 | inactive: 0.111 | inactive: 0.052 | inactive: -0.009 | inactive: 0.159 | inactive: -0.019 | inactive: -0.112 | inactive: -0.072 | inactive: -0.212 | inactive: 0 |
| LRP8 (UniProt E9PP15) | inactive: 0.09 | inactive: -0.241 | inactive: 0.085 | inactive: -0.072 | inactive: 0.022 | – | inactive: 0.192 | inactive: -0.043 | inactive: 0.047 | inactive: 0.044 |
| KTN1 (UniProt Q86UP2) | inactive: -0.016 | inactive: -0.078 | inactive: -0.028 | inactive: 0.122 | – | inactive: -0.047 | – | inactive: 0.097 | inactive: 0.094 | inactive: -0.207 |
| LANCL3 (UniProt Q6ZV70) | inactive: 0.217 | inactive: -0.023 | inactive: 0.134 | inactive: -0.049 | inactive: -0.011 | – | – | inactive: 0.197 | inactive: -0.013 | – |
| LDLR (UniProt P01130) | inactive: -0.005 | active: -0.363 | inactive: -0.05 | inactive: -0.045 | – | inactive: -0.038 | – | inactive: -0.094 | inactive: -0.017 | inactive: -0.052 |
| LRRC40 (UniProt Q9H9A6) | inactive: 0.052 | inactive: -0.141 | inactive: 0.104 | inactive: 0.138 | inactive: 0.041 | inactive: -0.095 | inactive: 0.028 | inactive: 0.129 | inactive: 0.032 | inactive: -0.068 |
| LIMA1 isoform 4 (UniProt Q9UHB6) | inactive: -0.076 | inactive: 0.001 | inactive: -0.04 | inactive: -0.057 | – | inactive: 0.019 | – | inactive: -0.036 | inactive: -0.023 | inactive: 0.185 |
| LEO1 (UniProt Q8WVC0) | inactive: 0.092 | inactive: 0.026 | inactive: -0.202 | inactive: -0.126 | – | inactive: -0.031 | – | inactive: -0.008 | inactive: 0.071 | inactive: 0.052 |
| LPIN2 (UniProt Q92539) | inactive: 0 | inactive: -0.195 | inactive: -0.021 | inactive: 0.111 | inactive: 0.013 | inactive: 0.014 | inactive: -0.098 | inactive: 0.101 | inactive: 0.062 | inactive: 0.003 |
| LACTB2 (UniProt Q53H82) | inactive: -0.005 | inactive: 0.049 | inactive: 0.01 | inactive: -0.081 | inactive: -0.017 | inactive: -0.013 | inactive: -0.006 | inactive: -0.05 | inactive: -0.035 | inactive: 0.098 |

Some of the entries so far, tab-delimited.
Target	log2 fold change [1]	log2 fold change (crizotinib)	log2 fold change [2]	log2 fold change [3]	log2 fold change (duvelisib)	log2 fold change (gandotinib)	log2 fold change (tozasertib)	log2 fold change [4]	log2 fold change (doramapimod)	log2 fold change (ispinesib)
LLPH (UniProt Q9BRT6)	inactive: -0.095	inactive: -0.034	inactive: -0.562	inactive: 0.51	inactive: -0.405	inactive: 0.393	inactive: 0.015	inactive: -0.071	inactive: 0.219	inactive: -0.201
LIN7C (UniProt Q9NUP9)	inactive: -0.029	inactive: -0.014	inactive: -0.017	inactive: -0.144	inactive: 0.058	inactive: -0.013	inactive: -0.001	inactive: 0.014	inactive: 0.042	inactive: -0.02
LRIF1 (UniProt Q5T3J3)	inactive: 0.013	inactive: 0.011	inactive: -0.081	inactive: -0.18	inactive: 0.096	inactive: 0.045	inactive: 0.025	inactive: 0.02	inactive: 0.001	inactive: -0.036
LETM1 (UniProt O95202)	inactive: -0.001	inactive: -0.056	inactive: 0.072	inactive: -0.102	inactive: 0.012	inactive: -0.046	inactive: 0.008	inactive: 0.014	inactive: -0.009	inactive: 0.073
LCLAT1 (UniProt Q6UWP7)	inactive: -0.042	inactive: 0.172	inactive: 0.022	inactive: -0.02	inactive: 0.022	inactive: -0.047	inactive: -0.031	inactive: -0.064	inactive: 0	inactive: 0.155
LMAN2L isoform 2 (UniProt Q9H0V9)	inactive: 0.075	inactive: 0.029	inactive: 0	inactive: 0.003	inactive: -0.021	inactive: -0.017	inactive: 0	inactive: 0.01	inactive: -0.009	inactive: -0.036
LRRC40 (UniProt Q9H9A6)	inactive: 0.052	inactive: -0.141	inactive: 0.104	inactive: 0.138	inactive: 0.041	inactive: -0.095	inactive: 0.028	inactive: 0.129	inactive: 0.032	inactive: -0.068
